Experimental data taken from PMC4197242.
Results are given in words; binding and its absence hold for the method and conditions named. Binding seen in cells or lysates may run through a third protein. Some results given as binding are weak or reduced against the parent protein; the word gives no strength.

Molecular target: T1, peroxisomal PEX7 receptor (human (endogenous in SH-EP)) (UniProt O00628)
T1 sequence: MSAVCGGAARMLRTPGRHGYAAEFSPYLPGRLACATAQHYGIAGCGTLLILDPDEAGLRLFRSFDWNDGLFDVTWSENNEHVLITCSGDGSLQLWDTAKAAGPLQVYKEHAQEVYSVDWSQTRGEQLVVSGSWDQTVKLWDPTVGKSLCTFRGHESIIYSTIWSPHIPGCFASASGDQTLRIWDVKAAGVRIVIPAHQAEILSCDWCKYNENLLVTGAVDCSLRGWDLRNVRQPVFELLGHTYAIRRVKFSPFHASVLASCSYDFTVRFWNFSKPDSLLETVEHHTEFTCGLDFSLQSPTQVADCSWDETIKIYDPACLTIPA
Test: co-IP; Pierce Crosslink Magnetic IP/Co-IP kit; 5 ug PEX7 antibody covalently cross-linked to 25 ul protein A/G magnetic beads, incubated with extracts of SH-EP/tetDEPP cells treated with 200 ng/ml doxy for 24 hours; low-pH elution; immunoblot for PEX7 and DEPP; beads without antibody as control (IP Ctr)

binding: binds
B1: Decidual Protein induced by Progesterone (DEPP) (protein, UniProt Q9NTK1 1-212)
chain: MRSRLLLSVAHLPTIRETTEEMLLGGPGQEPPPSPSLDDYVRSISRLAQPTSVLDKATAQGQPRPPHRPAQACRKGRPAVSLRDITARFSGQQPTLPMADTVDPLDWLFGESQEKQPSQRDLPRRTGPSAGLWGPHRQMDSSKPMGAPRGRLCEARMPGHSLARPPQDGQQSSDLRSWTFGQSAQAMASRHRPRPSSVLRTLYSHLPVIHEL
